Source: patent US11168249B1, “Luminescent polydentate polycyclic compounds for metal ions” (priority 2012, dated 2021)
For at least one compound, name, drawing or mass did not settle the structure.

Experiment: Fluorescence color in the solid state with and without metal ions or acids under UV 365 nm (FIGS. 2, 5, 6, 7, 24, 25)
Format: physicochemical
Settings: free compound (no metal ions)
Source text: FIG. 2 is a set of pictures showing the change in color of derivative compound D1 in the absence and presence of various metal ions (Ca^2+, Sr^2+, Cd^2+, Zn^2+, Ba^2+, Ha^+, Hb^+, Ni^2+) in the solid state. The sample labeled Ha^+ was isolated from a KOH/ethanol solution after treatment with trifluoroacetic acid (TFA). The sample labeled Hb^+ was obtained by using aluminum perchlorate, which produced acid (H^+) due to an unexpected hydrolysis reaction with the medium.
FIG. 5 is a set of pictures showing the change in color of derivative compound D1 in the absence and presence of various metal ions or acids (Ca^2+, Zn^2+, H^+, Pb^2+) in the solid state, both under ordinary light and under UV light (365 nm). Perchlorate salts were used. When the aluminum salt was used, an unexpected hydrolysis produced acid (H^+) which protonated the ligand. […]
With no metal, the D1 powder was blue. […] With Ni^2+, the powder was black (i.e. fluorescence was quenched).
FIG. 5 is a set of pictures showing fluorescence of D1 in the solid state, under ordinary light (top row) and under UV light (365 nm) (bottom row). […]
FIG. 6 is a set of pictures showing fluorescence of D1 in the solid state, under ordinary light (top row) and under UV light (365 nm) (bottom row). […]
FIG. 7 is a set of pictures showing fluorescence of D1 in the solid state, under ordinary light (top row) and under UV light (365 nm) (bottom row). […]

With `Oc1cccc2cc3c(nc12)-c1nc2c(O)cccc2cc1CC3` [Compound D7, 8,8′-dihydroxy-3,3′-dimethylene-2,2′-biquinoline] the fluorescence of powder was “non-fluorescent”.
